For the assay, the target named is T1, J3KNF4 (UniProt O14618).
T1 sequence (whole entry): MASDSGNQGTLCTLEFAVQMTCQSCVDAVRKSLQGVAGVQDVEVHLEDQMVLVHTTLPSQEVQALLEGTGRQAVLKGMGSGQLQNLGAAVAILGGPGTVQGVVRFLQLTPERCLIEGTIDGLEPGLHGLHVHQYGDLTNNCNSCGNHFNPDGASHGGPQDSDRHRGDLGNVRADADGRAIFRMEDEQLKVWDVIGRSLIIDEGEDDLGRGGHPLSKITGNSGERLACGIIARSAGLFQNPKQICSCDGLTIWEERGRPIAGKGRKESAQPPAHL
The assay can be described thus: NP40-soluble protein abundance relative to vehicle (solubility fold change) (ratio); higher = more soluble protein in presence of GTP. Here is the method:
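Solubility proteome profiling in Jurkat crude lysate. Lysate was treated with Mg-GTP (0.1-10 mM) for 10 min at room temperature and 3 min at 37 °C, then solubilised with 0.8% NP40 and benzonase, followed by ultracentrifugation. Proteins were quantified by TMT10 LC-MS/MS; the value is the NP40-soluble abundance relative to the NP40-processed vehicle, from 3 independent experiments.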

Structures are written as SMILES. ± gives the standard deviation of the averaged measurements. This is one part of the list.

Take `Nc1nc2c(ncn2[C@@H]2O[C@H](COP(=O)(O)OP(=O)(O)OP(=O)(O)O)[C@@H](O)[C@H]2O)c(=O)[nH]1` [guanosine triphosphate]: the NP40-soluble protein abundance (concentration: 0.1mM) is 0.98 ± 0.053; the NP40-soluble protein abundance (concentration: 0.5mM) stood at 0.956 ± 0.042; the NP40-soluble protein abundance (concentration: 1mM) is 0.927 ± 0.045; the NP40-soluble protein abundance (concentration: 2mM) was found to be 0.897 ± 0.087; the NP40-soluble protein abundance (concentration: 4mM) stood at 0.901 ± 0.084; the NP40-soluble protein abundance (concentration: 6mM) was 0.892 ± 0.074. Also, the NP40-soluble protein abundance runs as follows: (concentration: 8mM) 0.895 ± 0.1; (concentration: 10mM) 0.889 ± 0.086.

The values above are taken from the supplement of paper PMC6411743.
